Measurements reported in publication PMC10338470, “Phase 1 study of GSK3368715, a type I PRMT inhibitor, in patients with advanced solid tumors” (British Journal of Cancer, 2023).

Assay: Time on GSK3368715 (treatment duration)
Assay type: in vivo, human

Structure (SMILES): CCOCC1(COCC)CCC(c2[nH]ncc2CN(C)CCNC)CC1 [GSK3368715]
- Time on GSK3368715 3 months to 6 months (50 mg (n = 3)): 0 n (%)
- Time on GSK3368715, median (range) (50 mg (n = 3)): 53 (25, 56) days
- Time on GSK3368715 <3 months (50 mg (n = 3)): 3 (100) n (%)
- Time on GSK3368715 >6 months to 12 months (50 mg (n = 3)): 0 n (%)
- Time on GSK3368715 >12 months (50 mg (n = 3)): 0
- Time on GSK3368715 3 months to 6 months (100 mg (n = 16)): 3 (19) n (%)
- Time on GSK3368715, median (range) (100 mg (n = 16)): 58 (13, 224) days
- Time on GSK3368715 <3 months (100 mg (n = 16)): 12 (75) n (%)
- Time on GSK3368715 >6 months to 12 months (100 mg (n = 16)): 1 (6) n (%)
- Time on GSK3368715 >12 months (100 mg (n = 16)): 0
- Time on GSK3368715 3 months to 6 months (200 mg (n = 12)): 2 (17) n (%)
- Time on GSK3368715, median (range) (200 mg (n = 12)): 24 (1, 114) days
- Time on GSK3368715 <3 months (200 mg (n = 12)): 10 (83) n (%)
- Time on GSK3368715 >6 months to 12 months (200 mg (n = 12)): 0 n (%)
- Time on GSK3368715 >12 months (200 mg (n = 12)): 0
- Time on GSK3368715 3 months to 6 months (Total (N = 31)): 5 (16) n (%)
- Time on GSK3368715, median (range) (Total (N = 31)): 49 (1, 224) days
- Time on GSK3368715 <3 months (Total (N = 31)): 25 (81) n (%)
- Time on GSK3368715 >6 months to 12 months (Total (N = 31)): 1 n (%) and 1 (3) n (%)
- Time on GSK3368715 >12 months (Total (N = 31)): 0

“And” between values parts separate entries of the source, which are not always exact repeats. Equal values may be shown once.
